# Source: patent publication US20080199846A1, “Poultry semen extender” (priority 2007, published 2008)
# Tested on: turkey sperm
# Assay: Phosphatidylcholine uptake by turkey sperm during 24 h in vitro storage (NBD-PC, flow cytometry)
# Assay type: cell-based
# Conditions: for percentage of unlabeled sperm: within the first 15 min of storage at 4° C.; for increase in MnFI: viable sperm
substance,measurement,setting,value
NBD (fluorochrome)-phosphatidycholine [NBD-labeled PC],percentage of unlabeled sperm,0.5 mg NBD-PC,4.3%±0.2
same,percentage of unlabeled sperm,2.5 mg NBD-PC,2.1%±0.3
same,percentage of unlabeled sperm,10 mg NBD-PC,0.1%±0.02
same,increase in MnFI,"2.5 h of storage, 2.5 mg PC",2 fold
same,increase in MnFI,"2.5 h of storage, 10 mg PC",2 fold
same,increase in MnFI,"3 h of storage, 5 mg PC",2 fold
same,increase in MnFI,"4 h of storage, 2.5 mg PC",3 fold
same,increase in MnFI,"6 h of storage, 0.5 mg PC",3 fold
same,increase in MnFI,"6 h of storage, 10 mg PC",3 fold
same,increase in MnFI,"8 h of storage, 2.5 mg PC",4 fold
same,increase in MnFI,"12 h of storage, 0.5 mg PC",4 fold
same,increase in MnFI,"12 h of storage, 10 mg PC",4 fold
same,increase in MnFI,"24 h of storage, 0.5 mg PC",7.8 fold
same,increase in MnFI,"24 h of storage, 2.5 mg PC",9.2 fold
same,increase in MnFI,"24 h of storage, 10 mg PC",6.7 fold
same,spermatozoa containing labeled PC,"all other time-points of 24 h storage, including non-viable sperm",at least 98%
